For 99 compounds, growth inhibition results are on record in PubChem BioAssay AID504594 (Broad Institute, 2011).

Values joined by “and” are separate entries in the source; they are usually repeats but may differ in a detail not shown here. Identical values can stand only once. The campaign covered roughly 2,000 compounds. Fewer than 10 were called active.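 The calls were made as follows: active = growth inhibition of at least 75% in every replicate, which also brings the mean inhibition to 75% or more; inconclusive = mean inhibition 75% or more but some replicate under 75%; inactive = the rest.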 The list shows a part of the results.

The nature of the assay: growth inhibition of PfHsp90-dependent yeast, primary screen, antimalarial PfHsp90 inhibitor project, S. cerevisiae, BacTiter-Glo luminescence (AID 504594).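 Also: 0% = DMSO neutral control wells and 100% = 20 µM radicicol control wells; higher value means stronger growth inhibition because the sign is flipped.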 Particulars: S. cerevisiae expressing PfHsp90, BacTiter-Glo growth, 48 h; at 9.4 µM; stronger effect = higher value.
For `Cc1ccc2c(c1)OC(=O)CC2c1ccccc1` (centres undefined), the growth inhibition is inactive: 16.1%.

Consider `C#CCOc1ccc2c(C)cc(=O)oc2c1`, for which the growth inhibition was inactive: -0.459%.

For `CS(=O)(=O)NCc1ccc(C(=O)NCc2ccccc2)cc1`, the growth inhibition is inactive: -1.7%.

With `C/C(=N/N1CCN(Cc2cccc3ccccc23)CC1)c1cccnc1`, the growth inhibition is inactive: 2.11%.

Consider `Cc1cccc(Nc2ncccc2C(=O)O)c1C`, for which the growth inhibition is inactive: 14.6%.

For `COc1cccc(N2C(=O)[C@H]3C(C(=O)c4cnccn4)=NN[C@H]3C2=O)c1`, the growth inhibition is inactive: -1.02%.

For `Cc1ccc2c(c1)C1CN(C)CCC1N2S(=O)(=O)c1ccc(Oc2ccc([N+](=O)[O-])cc2)cc1` (centres undefined), the growth inhibition was inactive: -4.14%.

Regarding `COc1ccc(CNC(=O)N[C@H](C(=O)O)C(C)C)cc1OC`, the growth inhibition was inactive: -0.856%.

For the compound `CC1(C)CC(CC(=O)Nc2nccs2)(c2ccccc2)CCO1` (centres undefined), the growth inhibition was inactive: 4.27%.

Take `CC(=O)c1c[nH]c2ccc(C)cc2c1=O`: the growth inhibition is inactive: -4.93%.

`O=C(NCC1CCCCN1)c1cc(OCC(F)(F)F)ccc1OCC(F)(F)F` (centres undefined): the growth inhibition was inactive: 14.4%.

Take `CC1CCc2cc(F)cc3c(=O)c(C(=O)O)cn1c23` (centres undefined): the growth inhibition is inactive: -23.9%.

For the compound `COc1cc2ccc(=O)oc2c(O)c1OCC=C(C)C`, the growth inhibition was inactive: 1.02%.

As for `CCCCOc1ccc(OCCCN2CCOCC2)cc1`, the growth inhibition is inactive: 1.86%.

On to `COc1ccccc1C(=O)N=C1NC(=O)CC2C(=O)NCCN12` (centres undefined), for which the growth inhibition was inactive: 2.95%.

As for `Cc1ccc(NC(=O)CSc2nc(O)c(Cc3ccccc3)c(=O)n2-c2ccccc2)cc1`, the growth inhibition is inactive: -3.66%.

On to `COCCCN1C(=O)C(=O)/C(=C(/O)c2ccc3c(c2)CC(C)O3)C1c1cccnc1` (centres undefined), for which the growth inhibition was inactive: 5.09%.

With `COc1ccc2cc(C(=O)Nc3ccc(S(N)(=O)=O)cc3)sc(=O)c2c1OC`, the growth inhibition was inactive: 5.36%.

`CSc1ccc(CN2CCN(CCC(C)C)C(CCO)C2)cc1` (centres undefined): the growth inhibition was inactive: -12.6%.

Consider `Cc1nc(N)nc2c1CCCC2`, for which the growth inhibition is inactive: -5.02%.

On to `CC[n+]1c(C)sc2cc(C)ccc21`, for which the growth inhibition was inactive: -1.59%.

`CCc1cc(=O)oc2cc3occ(-c4ccc(OC)c(F)c4)c3cc12`: the growth inhibition was inactive: -4.19%.

For `Cc1ccc(SCC(=O)Nc2nccs2)cc1`, the growth inhibition was inactive: -0.344%.

In the case of `COc1ccc(CCN(C)Cc2nc(Cc3ccc(OC)c(OC)c3)no2)cc1OC`, the growth inhibition is inactive: 5.09%.

Regarding `Nc1nc2c(nc(SCc3ccccc3Br)n2C2OC(CO)C(O)C2O)c(=O)[nH]1` (centres undefined), the growth inhibition was inactive: -22.3%.

Turning to `CC1(C)CC(=O)C(C(=O)CCCCC(=O)C2C(=O)CC(C)(C)CC2=O)C(=O)C1`, the growth inhibition is inactive: 3.6%.

As to `CCOC(=O)C1C(=O)OC(C)(C)C1C(C)C(=O)c1ccc(C)cc1` (centres undefined), the growth inhibition is inactive: 23.2%.

Consider `O=C(Cc1cccc2ccccc12)N1CC[C@@]2(O)CCCC[C@H]2C1`, for which the growth inhibition was inactive: -9.85%.

Turning to `CCOC(=O)c1ccccc1NC(=O)c1ccc(F)cc1`, the growth inhibition is inactive: -12.5%.

For `OCC(O)CN1CCN(c2ccccc2)CC1` (centres undefined), the growth inhibition was inactive: 0.412%.

Turning to `CC(C)C[C@H](NC(=O)NC(C)C)C(=O)O`, the growth inhibition was inactive: 1.91%.

On to `CN(C)CCC(c1ccc(Cl)cc1)c1ccccn1` (centres undefined), for which the growth inhibition is inactive: -5.62%.

In the case of `COc1ccc(-c2coc3cc(O)cc(O)c3c2=O)cc1`, the growth inhibition is inactive: 5.54%.

Regarding `COc1ccc(C(=O)c2oc3ccc(Br)cc3c2NC(C)=O)cc1`, the growth inhibition was inactive: -11.3%.

Regarding `O=C(CC1(O)C(=O)Nc2ccccc21)c1ccccc1O` (centres undefined), the growth inhibition was inactive: 11.3%.

With `COc1ccccc1C1C(C#N)=C(N)Oc2c1oc(CO)cc2=O` (centres undefined), the growth inhibition was inactive: 13.1%.

`Nc1ccc(C(=O)O)c(O)c1`: the growth inhibition was inactive: -0.345% and inactive: -10.6%.

On to `O=C(O)c1ccccc1Nc1cccc(C(F)(F)F)c1`, for which the growth inhibition was inactive: -2.14%.

On to `O=C(NCCc1nc2ccccc2[nH]1)c1cccc(Br)c1`, for which the growth inhibition was inactive: 2.71%.

On to `Cc1ccc2c(c1)c(C)cc(=O)n2CCC(=O)O`, for which the growth inhibition was inactive: -4.29%.

Regarding `CC(C)(C)NCC(O)COc1ccccc1C(=O)CCc1ccccc1` (centres undefined), the growth inhibition was inactive: -4.71%.

Consider `CN(C)CCOC(=O)C(c1ccccc1)C1(O)CCCC1` (centres undefined), for which the growth inhibition was inactive: 6.01%.

On to `C[C@]12CCC3C(CC=C4C[C@@H](O)CC[C@@]43C)C1CCC2[C@]1(C)CCC(=O)O1` (some centres undefined), for which the growth inhibition was inactive: 3.64%.

As for `Nc1[nH]c(=O)ncc1F`, the growth inhibition was inactive: 29.4%.

For `CC(C)(C)OC(=O)N1CC(O)CC1C(=O)OCC(=O)c1ccc(Cl)cc1` (centres undefined), the growth inhibition was inactive: -9.87%.

On to `COc1ccc(/C=C\C(=O)c2c(O)ccc3c(C)cc(=O)oc23)cc1OC`, for which the growth inhibition was inactive: -6.45%.

Take `CCOC(=O)c1oc2cc(OCC(N)=O)ccc2c(=O)c1-c1ccc(OC)c(OC)c1`: the growth inhibition is inactive: 5.11%.

`S=C(NCCOCCOCCNC(=S)Nc1ccccc1)Nc1ccccc1`: the growth inhibition is inactive: -14.7%.

Consider `Cc1nc2ccccc2n1CC(O)Cn1c2ccccc2c2ccccc21` (centres undefined), for which the growth inhibition is inactive: -4.83%.

With `CCC1(c2ccccc2)NC(=S)N(c2ccc(C)c(C)c2)N1` (centres undefined), the growth inhibition was inactive: -7.44%.

In the case of `O=C(O)CCCCCN=C1CCc2ccccc2N1`, the growth inhibition is inactive: 0.535%.

Take `Cc1ccc2c(CN3CCN(Cc4ccc5c(c4)OCO5)CC3)cc(=O)oc2c1C`: the growth inhibition is inactive: 0.516%.

`COC(=O)C1=NN(C(=O)c2cccc(Br)c2)C(O)(c2ccc(Cl)cc2)C1` (centres undefined): the growth inhibition was inactive: -22.7%.

For `CC(=O)OCC1OC(n2ccc(=O)[nH]c2=O)C(O)C1O` (centres undefined), the growth inhibition was inactive: 0.902%.

On to `CC(NCCc1ccc(O)cc1)C(O)c1ccc(O)cc1` (centres undefined), for which the growth inhibition was inactive: 2.32%.

Regarding `COc1cccc(CC(=O)NCC2COc3ccccc3O2)c1OC` (centres undefined), the growth inhibition is inactive: 12.9%.

On to `O=[N+]([O-])c1ccc(O)c2ncccc12`, for which the growth inhibition was active: 93.7%.

Take `Cc1ccc(/C=N/NC(=O)C2(C)CC2(Br)Br)cc1` (centres undefined): the growth inhibition was inactive: -0.881%.

In the case of `COc1ccc(C2OC[C@H]3O[C@H](O)[C@H](NC(C)=O)[C@@H](O)[C@@H]3O2)cc1` (some centres undefined), the growth inhibition is inactive: -5.81%.

Take `N=c1nc(N2CCCCC2)cc(N)n1O`: the growth inhibition is inactive: 12.2%.

Turning to `CC(=O)Oc1ccc(C(c2ccc(OC(C)=O)cc2)c2ccccn2)cc1`, the growth inhibition is inactive: -5.45%.

For `O=C(O)CCC(=O)c1ccc(-c2ccccc2)cc1`, the growth inhibition is inactive: -5.52%.

As to `O=C1c2cccc3cccc(c23)C(=O)N1c1ccccn1`, the growth inhibition was inactive: -0.513%.

`COc1ccc(/C=C/C(=O)c2cc3cccc(OC)c3oc2=O)cc1`: the growth inhibition was inactive: -3.13%.

With `CCN(CC)Cc1c[nH]c2c(C(=O)OC)cccc12`, the growth inhibition was inactive: -2.96%.

Take `CN1CCN2c3ccccc3Cc3ccccc3C2C1` (centres undefined): the growth inhibition was inactive: 4.08%.

Turning to `O=C(O)c1cnccn1`, the growth inhibition was inactive: -2.57%.

Take `COc1ccc(-c2[nH]ncc2CN(C)C(C)c2ccon2)c(OC)c1` (centres undefined): the growth inhibition was inactive: -11.3%.

With `C=CCc1ccc(OCC(O)COc2ccc(CC=C)cc2OC)c(OC)c1`, the growth inhibition was inactive: -20%.

As to `Cc1ncoc1C(=O)N1CCCC(C(=O)c2ccc(-c3ccccc3)c(F)c2)C1` (centres undefined), the growth inhibition is inactive: -23%.

Turning to `CCSC(=O)CCCCCCCCCCCO`, the growth inhibition is inactive: 2.01%.

As for `CCOc1ccc(C(=O)NC(C)C2COc3ccccc3O2)cc1` (centres undefined), the growth inhibition is inactive: 6.54%.

For `C[C@H](CCC(=O)O)[C@H]1CC[C@H]2[C@@H]3C(=O)C[C@@H]4CC(=O)CC[C@]4(C)[C@H]3CC(=O)[C@]12C`, the growth inhibition is inactive: 8.97%.

In the case of `Cc1nc2sccn2c(=O)c1CCN1CCC(=C(c2ccc(F)cc2)c2ccc(F)cc2)CC1`, the growth inhibition is inactive: 3.73%.

As for `Cc1ccc2[nH]c3c(c2c1)CCNC3=O`, the growth inhibition is inactive: -8.37%.

For `CC1(C)CC(=O)C2=C(C1)c1c(ccc3ccccc13)NC2c1ccco1` (centres undefined), the growth inhibition was inactive: -5.44%.

As to `N=c1ccn(CC(=O)NC(N)=O)c2ccccc12`, the growth inhibition was inactive: -0.411%.

On to `OC(CCN1CCCCC1)(c1ccccc1)c1ccccc1`, for which the growth inhibition was inactive: 6.58%.

`CC(=O)[C@H]1[C@H](C#N)C[C@H]2[C@@H]3CC=C4C[C@@H](O)CC[C@]4(C)[C@H]3CC[C@@]21C`: the growth inhibition was inactive: -7.44%.

Consider `COc1ccc(C(CC(=O)N2CCOCC2)C(C)C)cc1` (centres undefined), for which the growth inhibition was inactive: 0.0597%.

For the compound `COc1c2occc2c(OC)c2c(=O)cc(C(F)(F)C(F)(F)F)oc12`, the growth inhibition is inactive: -5.37%.

Take `CCOc1ccc2[nH]c3c(=O)n(CCc4ccc(OC)cc4)cnc3c2c1`: the growth inhibition is inactive: -11.5%.

As for `COc1ccc2[nH]cc(C3N4CC5(C)CN3CC(C)(C4)C5=O)c2c1` (centres undefined), the growth inhibition was inactive: 3.6%.

Consider `Cc1ccccc1C(=O)NNc1ncnc2c1cnn2C`, for which the growth inhibition is inactive: 6.23%.

For the compound `CC(C)NNC(=O)c1ccncc1`, the growth inhibition is inactive: -0.426%.

Regarding `CC(=O)N(CCC1(C(C)C)CCOC(C)(C)C1)Cc1ccco1` (centres undefined), the growth inhibition was inactive: 8.32%.

Take `CC(=O)N=c1sc(S(N)(=O)=O)nn1C`: the growth inhibition is inactive: -2.22%.

Consider `Cc1cc(C)c(NC(=O)NC(=O)C(Cl)(Cl)Cl)c(C)c1`, for which the growth inhibition was inactive: 2.99%.

Consider `COc1ccc(NC(=O)C2OC3OC(C)(C)OC3C3OC(C)(C)OC23)cc1` (centres undefined), for which the growth inhibition is inactive: 2.54%.

As to `O=c1c2ccccc2nc2n1CCCN2`, the growth inhibition is inactive: 6.84%.

Take `CC(=O)Oc1ccc(C(=O)O)cc1OC(C)=O`: the growth inhibition is inactive: -3.21%.

With `CCOC(=O)C1=C(C)N[C@@]2(O)c3ccccc3C(=O)[C@@]12O`, the growth inhibition was inactive: -0.766%.

`Cn1cc(CN2CCC(C(=O)N3CCCCC3)CC2)c(-c2ccccc2F)n1`: the growth inhibition was inactive: 9.47%.

`CCOc1ccc(CC2CCC(=O)NC2=O)cc1` (centres undefined): the growth inhibition was inactive: 16.2%.

With `O=C(COc1cc(O)c2c(=O)c3ccccc3oc2c1)OCc1ccccc1`, the growth inhibition was inactive: 4.36%.

With `Cc1ccc(C2=NOC(=O)/C2=C\C=C\c2ccccc2)cc1`, the growth inhibition was inactive: 14.3%.

`CC(C)(C)OC(=O)COc1cc(OCC(=O)OC(C)(C)C)c2c(=O)cc(-c3ccccc3)oc2c1`: the growth inhibition was inactive: -8.59%.

With `CC(C)=CCCC1=CCC2C(=O)NNC(=O)C2C1` (centres undefined), the growth inhibition was inactive: -3.66%.

Take `COc1ccc(C(=O)Nc2nc3ccccc3c(=O)[nH]2)cc1`: the growth inhibition is inactive: 11.1%.
